14 molecules from patent US6124078A, “Photo-decoloring dye, a binder resin composition containing the same and photo-recording material” (Konica Corporation, priority 1998, dated 2000) can be followed below.

The nature of this data set: Photo-decoloring ability (ultraviolet exposure through UGRA plate control wedge PCW 82). The settings on record: step at which sample photo-decolored; UV exposure adjusted so that sample 4-1 decolors at the eighth step; higher is better. An excerpt:
The binder resin composition containing the photo-decoloring dye used for making sample 3-1 was coated on a polyethylenenaphthalate base having thickness of 4.0 μm by using a wire bar in a coating amount of 2.5 g/m^2 after drying so as to obtain a photo-recording material consisting of a photo-decoloring layer on the polyethylenenaphthalate film. On a back side of said polyethylenenaphthalate base was coated a nitrocellulose layer containing a silicone modified urethane resin (SP-2105, produced by Dainichiseika Co., Ltd.) as a sticking-preventing layer. Thus obtained sample is termed sample 4-1.
By replacing the photo-decoloring dye 7 used in sample 4-1 by such photo-decoloring dyes as described later, sample 4-2 to 4-16 were obtained. Both photo-decoloring ability and storage stability of these dyes were evaluated.
The above obtained photo-recording materials were exposed to ultraviolet rays by using UGRA plate control wedge PCW 82 (produced by Mika Electron Co., Ltd.). An exposed amount of ultraviolet rays was adjusted so that sample 4-1 photo-decolored at the eighth step. The same amount of ultraviolet rays was given to the other samples 4-2 to 4-16 and evaluation was carried out by counting the step where the samples photo-decolored. With higher step where the samples photo-decolor, the photo-recording materials are excellent in photo-decoloring ability.

The structures appear in SMILES notation.

Turning to `CCCCc1nnc2n1N=C(C(C)(C)C)C2=Nc1ccc(O)cc1` [A], the Photo-decoloring ability worked out at 9.
In the case of `CCCCc1nnc2c(=Cc3cc(Cl)c(O)c(Cl)c3)c(C(C)(C)C)nn12` [B], the Photo-decoloring ability amounted to 7.
The figure for `CCN(CC)c1ccc(N=C(C(C)=O)C(=O)Nc2ccccc2)c(C)c1` [C] is 3.
`CCN(CC)c1ccc(N=C2C(=O)N(c3ccccc3)N=C2C)cc1` [D] returned a Photo-decoloring ability of 1.
Next, `CCN(CC)c1ccc(N=C2C=CC(=O)c3ccccc32)cc1` [E]: 1; `CN1C(=CC=CC2=[N+](C)c3ccccc3C2(C)C)C(C)(C)c2ccccc21` [F]: 5; `CCCCCCCCCCCCS(=O)(=O)CCCc1nnc2n1N=C(C(C)(C)C)C2=Nc1cc(Cl)c(O)c(Cl)c1` [compound 7]: 8.
`CCC(Oc1ccc(C(C)(C)CC)cc1C(C)(C)CC)C(=O)NCCC(C)c1nnc2n1N=C(C(C)(C)C)C2=Nc1cc(Cl)c(O)c(Cl)c1` (centres unmarked) [compound 11] came in with a Photo-decoloring ability of 7.
For the molecule `CCCCCCCCCCCCOc1ccc(S(=O)(=O)NCC(C)(C)c2nnc3n2N=C(C(C)(C)C)C3=Nc2cc(Cl)c(O)c(Cl)c2)cc1` [compound 13], the Photo-decoloring ability was 7.
The figure for `CCCCCCCCCCCCC(Oc1ccc(OC(C)=O)c(C(C)(C)C)c1)C(=O)NCCc1nnc2n1N=C(C)C2=Nc1cc(Cl)c(O)c(Cl)c1` (centres unmarked) [compound 17] is 8; for `CCCCC(Oc1ccc(C(C)(C)CC)cc1C(C)(C)CC)C(=O)Nc1ccc2nc3n(c2c1)N=C(C)C3=Nc1cc(Cl)c(O)c(Cl)c1` (centres unmarked) [compound 32] it is 6.
Next, `CCC(C)(C)c1ccc(OCC(=O)Nc2ccnc(-c3cnc4n3N=C(C(C)(C)C)C4=Nc3cc(Cl)c(O)c(Cl)c3)c2)c(C(C)(C)CC)c1` [compound 33]: 8; `CCCCCCCCCCCCS(=O)(=O)NCCc1nc2c(=Cc3cc(Cl)c(O)c(Cl)c3)c(C(C)(C)C)nn2n1` [compound 47]: 9.
The figure for `CCCCCCCCCCCCS(=O)(=O)CCCc1nnc2c(=Cc3cc(Cl)c(O)c(Cl)c3)c(C(C)(C)C)nn12` [compound 58] is 9.
